Laboratory results as given in patent publication US20220220185A1 (CELL NETWORKS, published 2022).

Chains of the proteins cited; added tags and fusions are not shown. Lines headed by an entry give the natural chain unless they say otherwise; changes in a name come on top.
UniProt Q00722: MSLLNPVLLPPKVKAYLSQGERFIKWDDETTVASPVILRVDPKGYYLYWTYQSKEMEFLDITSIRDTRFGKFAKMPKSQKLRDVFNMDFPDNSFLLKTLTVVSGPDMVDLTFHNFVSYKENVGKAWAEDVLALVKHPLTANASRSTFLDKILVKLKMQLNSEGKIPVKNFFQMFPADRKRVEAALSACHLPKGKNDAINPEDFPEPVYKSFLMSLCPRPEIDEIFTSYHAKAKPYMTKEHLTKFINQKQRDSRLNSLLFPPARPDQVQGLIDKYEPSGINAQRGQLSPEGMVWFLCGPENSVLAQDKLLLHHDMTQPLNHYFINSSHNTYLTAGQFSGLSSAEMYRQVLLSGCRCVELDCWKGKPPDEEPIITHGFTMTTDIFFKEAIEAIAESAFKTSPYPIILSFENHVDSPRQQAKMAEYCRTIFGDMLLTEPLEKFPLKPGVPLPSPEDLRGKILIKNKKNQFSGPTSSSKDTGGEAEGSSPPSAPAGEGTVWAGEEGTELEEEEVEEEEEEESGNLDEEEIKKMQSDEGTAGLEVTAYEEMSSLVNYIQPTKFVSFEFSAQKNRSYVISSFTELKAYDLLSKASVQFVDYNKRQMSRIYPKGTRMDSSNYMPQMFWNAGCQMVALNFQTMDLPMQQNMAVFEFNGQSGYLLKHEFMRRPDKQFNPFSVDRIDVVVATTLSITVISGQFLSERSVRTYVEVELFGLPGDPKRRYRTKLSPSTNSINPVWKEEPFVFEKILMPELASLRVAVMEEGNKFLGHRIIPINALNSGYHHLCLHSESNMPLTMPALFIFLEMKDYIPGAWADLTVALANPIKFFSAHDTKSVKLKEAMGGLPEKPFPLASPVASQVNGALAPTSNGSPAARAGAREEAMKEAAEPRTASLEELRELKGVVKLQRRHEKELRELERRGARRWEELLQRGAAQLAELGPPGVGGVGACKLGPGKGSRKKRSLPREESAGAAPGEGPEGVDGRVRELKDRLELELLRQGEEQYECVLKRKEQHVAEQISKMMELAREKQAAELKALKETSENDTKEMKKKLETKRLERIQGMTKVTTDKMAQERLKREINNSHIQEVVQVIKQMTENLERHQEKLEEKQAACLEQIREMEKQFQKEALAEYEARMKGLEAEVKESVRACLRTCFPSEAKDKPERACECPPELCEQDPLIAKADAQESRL
UniProt P29992: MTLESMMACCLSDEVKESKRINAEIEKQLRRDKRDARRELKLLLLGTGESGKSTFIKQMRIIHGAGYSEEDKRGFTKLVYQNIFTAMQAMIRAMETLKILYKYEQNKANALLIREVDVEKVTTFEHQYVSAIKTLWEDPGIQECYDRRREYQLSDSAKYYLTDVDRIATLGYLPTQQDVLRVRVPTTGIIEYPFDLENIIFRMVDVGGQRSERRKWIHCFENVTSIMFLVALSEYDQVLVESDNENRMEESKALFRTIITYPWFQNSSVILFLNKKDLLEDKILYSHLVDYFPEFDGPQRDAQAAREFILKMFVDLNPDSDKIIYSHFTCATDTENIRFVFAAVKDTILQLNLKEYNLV

Molecular target: Sm-PLCβ2 (UniProt Q00722)
Experiment: NanoBiT-Gq/PLC interaction assay in cells, after GPCR ligand stimulation

binding: binds
Substance: Gα11-Lg (LgBiT insertion at the αB-αC linker) (from UniProt P29992 1-359)

Results are given in words; binding and its absence hold for the method and conditions named. Binding can be weak; no strength is given.
